Measurements published in PubChem BioAssay AID1487 (National Center for Advancing Translational Sciences (NCATS), 2009).
The campaign covered roughly 200,000 compounds. About 25 (0.01%) were called active. This list was built around the results that the source calls inconclusive (neither active nor inactive); the mix of calls is not that of the screen. The call rests on the fitted dose curve; in most records, active means well fitted inhibition curve with a large enough effect in the signal ratio, with a control signal flat (not every such curve was filed as active); inconclusive means small, poorly fitted or top-dose-only effect, or effect the other way, or a change in a side signal; inactive means flat fitted curve, though single readings scatter; the % refers to the signal ratio. A potency beside an inconclusive call is a rough fit, not a confirmed value.

Test: qHTS Assay for Modulators of Lamin A Splicing
Conditions: HeLa LMNA splicing GFP/RFP minigene ratio, 48 h; ratio change, negative = inhibition: at 46.1 µM (top of the series) unless noted
Summary of the method: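 S3 HeLa stable clones carrying a lamin A-EGFP splicing minigene plus DsRed2 were seeded at 600 cells/well in Opti-MEM with 2% FBS, pin-dosed and incubated 48 h at 37°C. Acumen cytometry (488 nm) gave the GFP/RFP total-intensity ratio.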
On the % scale 0 is the no-effect control and ±100 the full control effect; potency means the concentration at half of the fitted maximal effect.

| Structure (SMILES) | ratio change, negative = inhibition | Potency |
| --- | --- | --- |
| O=C(NCCc1ccc(Cl)cc1)C1CCN(Cc2cc3ccccc3n2Cc2ccccc2)CC1 | inactive |  |
| O=C(Nc1ccccc1)c1cccc(N2CCCC2=O)c1 | inactive |  |
| Cc1cccc(N(CC(N)=O)C2SC(=O)NC2=O)c1 (centres undefined) | inconclusive: -7.05% |  |
| Cc1cc(NC(=O)N2CCC(CN3CCCCCC3)CC2)ccc1Br | inactive |  |
| CCCNc1c(F)c(F)c2c(C)c3ccccc3nc2c1F | inconclusive: 43.5% |  |
| O=c1cc(-c2ccc(C3CCCCC3)cc2)[nH][nH]1 | inconclusive: -37.4% [at 46 µM] |  |
| CCC1Sc2ccccc2N(CC(=O)NCc2ccc(C)cc2)C1=O (centres undefined) | inconclusive: -2.53% [at 46 µM] |  |
| CN(CCOc1ccc(CC2SC(=O)NC2=O)cc1)c1ccccn1 (centres undefined) |  | inconclusive: 0.0022 µM [inhibitor, full curve, poor fit] |
| C/C=C/C(=O)OCC(=O)Nc1nc2ccc(C)cc2s1 | inactive |  |
| CN(C)S(=O)(=O)c1ccc2nnn(O)c2c1 | inactive: -0.539% [at 9.22 µM] |  |
| Cc1ccc(C)c(NC(=S)NNC(=O)c2csc3c2CCCC3)c1 | inactive |  |
| COc1cc(N=Nc2c(O)c3ccccc3[nH]c2=O)c(OC)cc1N=Nc1ccccc1 | inactive |  |
| O=C(O)/C=C\C(=O)Nc1ccc(N2CCN(c3cccc(Cl)c3)CC2)cc1 | inactive |  |
| Cc1cc(C)c2cc(CN(CCO)C(=O)Nc3ccc(F)cc3)c(=O)[nH]c2c1 | inconclusive: 19% |  |
| COc1cc(NC(=O)N2CCSc3ccccc32)cc(OC)c1OC | inactive |  |
| O=c1c2ccccc2nc2n1C(CSCc1ccccc1)CS2 (centres undefined) |  | inconclusive: 11.2 µM [fluorescent, partial curve, poor fit] |
| CCOc1ccc(-n2c(Cc3cc(=O)[nH]c(=O)[nH]3)nnc2SCC(=O)OC)cc1 | inactive |  |
| O=C1c2oc3ccc(Cl)cc3c(=O)c2C(c2ccccn2)N1CCCN1CCOCC1 (centres undefined) | inactive |  |
| CCn1c(SCC(N)=O)nnc1-c1ccc(S(=O)(=O)N2CCN(C)CC2)cc1 | inactive |  |
| OCCOCCOCCO | inactive |  |
| COP(=O)(OC)c1nc(-c2cccc3ccccc23)oc1N1CCOCC1 | inactive |  |

Among those listed so far, these contain an aryl methoxy group.

| Structure (SMILES) | ratio change, negative = inhibition | Potency |
| --- | --- | --- |
| COc1cc(N=Nc2c(O)c3ccccc3[nH]c2=O)c(OC)cc1N=Nc1ccccc1 | inactive |  |
| COc1cc(NC(=O)N2CCSc3ccccc32)cc(OC)c1OC | inactive |  |

The results go on.

| Structure (SMILES) | ratio change, negative = inhibition | Potency |
| --- | --- | --- |
| Cc1ccc(-c2nn3c(=O)cc(CN4CCN(C(=O)Nc5cccc(C(F)(F)F)c5)CC4)nc3s2)cc1 | inconclusive: 12.6% [at 46 µM] |  |
| Cc1ccc(CCNC(=O)c2cnc3c(-c4ccc(F)cc4)c(C)nn3c2C)cc1 | inactive |  |
| COc1ccccc1NC(=O)Cc1csc(NC(=S)Nc2ccccc2)n1 |  | inconclusive: 35.5 µM [falling, single point] |
| O=C(Oc1ccc2c(=O)c(Cl)coc2c1)c1cccnc1 | inactive |  |
| Cc1ccc(OCC(=O)NC(C)c2ccccc2)c([N+](=O)[O-])n1 (centres undefined) | inconclusive: -16.8% [at 46 µM] |  |
| CCn1c(SCC(=O)N/N=C/c2ccc(C)o2)nnc1-c1ccc(C(C)(C)C)cc1 |  | inconclusive: 35.5 µM [fluorescent, single point] |
| CCOC(=O)/C=C/COc1ccccc1[N+](=O)[O-] | inconclusive: 10.4% [at 1.84 µM] |  |
| O=C(CN(CCc1ccccc1)C(=O)CN1C(=O)COc2ccccc21)NCc1ccco1 | inactive |  |
| COc1ccccc1-n1c(C)nc2cc(C(=O)O)ccc21 | inactive |  |
| Cc1ccc(NC(=S)N2CCCC(c3nc4ccc(C)cc4[nH]3)C2)c(C)c1 (centres undefined) | inconclusive: 10.1% [at 0.0737 µM] |  |
| Cc1ccc(-c2nc(CCNC(=O)C(=O)Nc3c(C)cccc3C)cs2)cc1 | inconclusive: -8.21% [at 46 µM] |  |
| CN(C)CCNc1oc(COc2cccc(Cl)c2)nc1C#N | inconclusive: 16.7% |  |
| CCOCCn1cnc2sc(C(=O)Nc3ccccc3C(=O)OC)c(C)c2c1=O | inactive |  |
| O=C(O)c1ccc(-n2c(-c3ccccc3)n[nH]c2=S)cc1 | inactive |  |
| CCCN(CCC)C(=O)c1nn(C)c2c1CSc1ccc(C)cc1-2 | inconclusive: -6.61% [at 46 µM] |  |
| COC(=O)c1cc(Sc2cccc(Cl)c2Cl)ccn1 | inconclusive: -25.9% [at 46 µM] |  |
| CCOc1ccccc1CNC(=O)c1nn(CC)cc1[N+](=O)[O-] | inconclusive: 1.31% |  |
| CC(=O)Nc1nc(-c2ccc3c(c2)CCO3)cs1 | inconclusive: -4.53% [at 46 µM] |  |
| O=C(O)c1cc(NCc2ccc3c(c2)OCO3)ccc1N1CCOCC1 | inactive |  |
| Cc1ccc(NC(=S)N(CCN2CCCCC2)Cc2ccco2)cc1C | inconclusive: 5.25% [at 46 µM] |  |
| CSc1ncc(CN2CCCC(C(=O)c3ccc(C(C)(C)C)cc3)C2)cn1 (centres undefined) | inconclusive: 2.09% [at 46 µM] |  |

| Structure (SMILES) | ratio change, negative = inhibition | Potency |
| --- | --- | --- |
| CC(N)C12CC3CC(CC(C3)C1)C2 (centres undefined) | inconclusive: 6.95% |  |
| O=C(Nc1cccnc1)c1ccccc1NS(=O)(=O)c1ccc(F)cc1 |  | inconclusive: 35.5 µM [inhibitor, single point] |
| Cn1c(N)c(C(=O)COC(=O)CSc2cccc3cccc(Cl)c23)c(=O)n(C)c1=O | inactive |  |
| COc1ccc(O[C@H]2C=C[C@@H](c3ccccc3)O[C@@H]2CO/N=C/C[C@@H]2C=C[C@H](OC(C)=O)[C@@H](COC(C)=O)O2)cc1 | inconclusive: -11.5% |  |
| Cc1cccc(/C=N/N(CCO)C2=NS(=O)(=O)c3ccccc32)c1 | inconclusive: 27.8% [at 9.22 µM] |  |
| Cc1ccc2oc(-c3ccco3)cc(=O)c2c1 | inconclusive: -17.3% [at 46 µM] |  |
| O=C(Nc1ccc2c(c1)OCO2)c1cc(-c2cccnc2)nc2ccccc12 | inactive |  |
| CN(c1ccccc1)S(=O)(=O)c1cc(C(=O)OCC(=O)N2CCN(C(=O)c3ccco3)CC2)ccc1Cl | inconclusive: 4.16% [at 46 µM] |  |
| Cc1ccc(C)c(N2CCN(S(=O)(=O)c3ccc(C(=O)N(C)C)s3)CC2)c1 | inconclusive: -1.87% [at 46 µM] |  |
| CCOc1ccc2nc(SCC(=O)Nc3ccc4c(c3)OCO4)sc2c1 | inconclusive: -26% |  |
| COc1ccc(C)cc1NC(=O)C(OC(=O)CNC(=O)c1cc(C)cc(C)c1)c1ccccc1 (centres undefined) | inactive |  |
| COC(=O)c1c(NC(=O)CSc2nnc(-c3ccco3)n2Cc2ccccc2)sc(C)c1C | inconclusive: 4.82% |  |
| CCOC(=O)c1c(C)nc2ccc(Cl)cc2c1-c1ccccc1 | inactive |  |
| CCCOc1ccc(CC(=O)NNC(=S)Nc2ccccc2)cc1Br |  | inconclusive: 35.5 µM [fluorescent, single point] |
| Cc1nn(C(=O)CCCn2cc([N+](=O)[O-])cn2)c(C)c1Cl | inconclusive: 0.811% [at 46 µM] |  |
| C=CCNc1nc(-c2ccc(Cl)cc2)cs1 | inactive |  |
| COc1cccc(-c2nnc(NC(=O)c3ccc4ncsc4c3)o2)c1 |  | inconclusive: 8.91 µM [falling, partial curve] |
| O=C(/C=C/c1ccc(Cl)cc1)N1CCC(c2nc3ccccc3o2)CC1 | inconclusive: 33.8% [at 46 µM] |  |
| CCc1nnc(NC(=O)CSc2nnc(CNc3ccc(C)cc3)n2C)s1 | inactive |  |
| Oc1ccc(/C=N/N(Cc2ccccc2)c2ccccc2)cc1 | inconclusive: -42.2% [at 46 µM] |  |
| CCCCNS(=O)(=O)c1ccc2nc(-c3cccnc3)cc(C(=O)NC(C)C)c2c1 | inconclusive: 42.9% [at 46 µM] |  |

| Structure (SMILES) | ratio change, negative = inhibition | Potency |
| --- | --- | --- |
| CCOC(=O)c1ccccc1NC(=O)c1cc2ccc3cccnc3c2[nH]1 | inactive |  |
| Cc1ccccc1N1CC(c2nnc(NC(=O)c3ccco3)s2)CC1=O (centres undefined) | inconclusive: -23.7% [at 46 µM] |  |
| CC(=O)Nc1ccc(NC(=O)Cn2nc([N+](=O)[O-])c(Br)c2C)cc1 | inconclusive: -6.29% [at 9.22 µM] |  |
| O=C(COC(=O)c1ccc(F)cc1F)Nc1ncccn1 | inconclusive: 21.3% [at 46 µM] |  |
| O=C(COC(=O)c1ccc2ccccc2n1)NCc1ccccc1 | inconclusive: 6.03% [at 46 µM] |  |
| COc1ccc(C(O)c2nccc3cc(OC)c(OC)cc23)cc1OC (centres undefined) | inconclusive: -6.96% [at 46 µM] |  |
| Cc1cc(C)cc(NC(=O)CN2CCC(NC(=O)Cc3ccccc3)CC2)c1 | inactive |  |
| CC1CCCC(NC(=O)COC(=O)CCC2CCCC2)C1C (centres undefined) | inactive |  |
| Cc1ccc(Sc2ncccc2COC(=O)Nc2c(C)cccc2C)cc1 |  | inconclusive: 35.5 µM [fluorescent, single point] |
| Cc1cccc(NC(=O)CSc2nc3n[nH]c(C)c3c(=N)n2-c2cccc(Cl)c2)c1 | inactive |  |
| Nc1nc(CN2CCN(c3ccccc3)CC2)nc(Nc2ccc(Cl)cc2)n1 | inconclusive: 14.3% [at 46 µM] |  |
| CCCCNc1oc(-c2ccc(OC)cc2)nc1S(=O)(=O)c1ccccc1 | inactive |  |
| CCCCNC(=O)CCC(=O)Nc1ccc2nc(N3CCC(C)CC3)cc(C)c2c1 | inconclusive: -11.5% [at 46 µM] |  |
| CCCOc1ccc(C(=O)N2CCC(c3nc4ccccc4s3)CC2)cc1 | inconclusive: -4.98% [at 46 µM] |  |
| CC(=N\O)/C(CN(C)C)=N/O | inconclusive: -1.01% |  |
| COc1ccc(/C=N/Nc2cc(C)nc(-n3nc(C)cc3C)n2)c(OC)c1 |  | inconclusive: 35.5 µM [fluorescent, single point] |
| COc1ccc2[nH]cc(CCNc3ncncc3-c3ccccc3C)c2c1 | inconclusive: -14.3% |  |
| S=c1[nH]ncn1/N=C/c1cccc(Oc2ccccc2)c1 | inactive |  |
| O=C(CSc1nnc(-c2ccccn2)n1-c1ccccc1)Nc1ccc2c(c1)OCO2 | inconclusive: 8.95% |  |
| COC(=O)CNC(=O)CN1C(=O)N(c2cccc(Cl)c2)C(N(O)C(=O)Nc2cccc(Cl)c2)C1(C)C (centres undefined) | inconclusive: 36.2% |  |
| O=C(c1cnn(C(=O)COc2ccc(Cl)cc2)c1)c1ccccc1O | inactive |  |

An excerpt from above in order of formula weight, low to high.

| Structure (SMILES) | ratio change, negative = inhibition | Potency |
| --- | --- | --- |
| O=C(O)c1ccc(-n2c(-c3ccccc3)n[nH]c2=S)cc1 | inactive |  |
| COc1ccc(/C=N/Nc2cc(C)nc(-n3nc(C)cc3C)n2)c(OC)c1 |  | inconclusive: 35.5 µM [fluorescent, single point] |
| CCCCNC(=O)CCC(=O)Nc1ccc2nc(N3CCC(C)CC3)cc(C)c2c1 | inconclusive: -11.5% [at 46 µM] |  |
